The values below come from the supplement of paper PMC4635364.

The test system of assay [1] is ReNCell VM. Kind of assay: neuronal differentiation score (DCX+ cell fraction vs untreated, manual image score) (score (-3 to 3)); higher = more neuronal differentiation. Conditions: 2 uM, 2 weeks.
Assay [2] relates to ReNCell VM. Kind of assay: dopaminergic neuron differentiation score (TH+ cell fraction vs untreated, manual image score) (score (0 to 3)); higher = more TH+ dopaminergic neuron differentiation. Conditions: 2 uM, 4 weeks, BDNF 10 ng/ml + GDNF 10 ng/ml.

Where a name gives a salt, the structure may show the parent alone. The list shows a part of the results. Repeats in this data set agree poorly, so a single value says little.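 Cells: ReNCell VM human fetal ventral-midbrain neural progenitors, differentiated mitogen-free. Blinded raters compared doublecortin-stained (early neurons) or tyrosine hydroxylase-stained (dopaminergic neurons) images with untreated wells, where 0 means no change. After repeats and both raters were averaged, compounds scoring 2 or above became hits for retesting.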

With `CCN(CC)C(=O)/C(C#N)=C/c1cc(O)c(O)c([N+](=O)[O-])c1`, the neuronal differentiation score in assay [1] (library: Spectrum) is inactive: 0. Moreover, the “dopaminergic neuron differentiation score” value in assay [2] (library: Spectrum) was inactive: 0.

With `CCOc1cc(CC(=O)N[C@@H](CC(C)C)c2ccccc2N2CCCCC2)ccc1C(=O)O` [Repaglinide], the neuronal differentiation score in assay [1] (library: Prestwick) and in assay [1] (library: Tocriscreen) was inactive: 0 each time. Besides, the “dopaminergic neuron differentiation score” value in assay [2] (library: Prestwick) and in assay [2] (library: Tocriscreen) was inactive: 0 in each case.

For `O=C1NCC2(CCN(CCc3ccccc3)CC2)O1` [Fenspiride hydrochloride], the figures for the neuronal differentiation score in assay [1] (library: LOPAC) and in assay [1] (library: Prestwick) were inactive: -1 and inactive: 0, respectively. The “dopaminergic neuron differentiation score” value in assay [2] (library: LOPAC) and in assay [2] (library: Prestwick) was inactive: 0 each time.

Turning to `CN1CCc2cccc3c2[C@H]1Cc1ccc(O)c(O)c1-3` [R(-) Apomorphine hydrochloride hemihydrate], the neuronal differentiation score in assay [1] (library: Phytochemical) and in assay [1] (library: Prestwick) was inactive: 0 in each case. The “dopaminergic neuron differentiation score” value in assay [2] (library: Phytochemical) and in assay [2] (library: Prestwick) was inactive: 0 in each case.

As to `CN(C)CCC(c1ccccc1)c1ccccn1` (stereo not drawn) [Pheniramine maleate], the neuronal differentiation score in assay [1] (library: LOPAC) is inactive: 0; in assay [1] (library: Prestwick), inactive: 1. Moreover, the “dopaminergic neuron differentiation score” value in assay [2] (library: LOPAC) and in assay [2] (library: Prestwick) was inactive: 0 throughout.

In the case of `COc1cc(N)c(Cl)cc1C(=O)NC1CCN(CCCOc2ccc(F)cc2)CC1OC` (stereo not drawn) [Cisapride], the neuronal differentiation score in assay [1] (library: Prestwick) and in assay [1] (library: Tocriscreen) was inactive: 0 throughout. Moreover, the “dopaminergic neuron differentiation score” value in assay [2] (library: Prestwick) and in assay [2] (library: Tocriscreen) was inactive: 0 in each case.

`CC(C)(C)c1ccc(C(O)CCCN2CCC(C(O)(c3ccccc3)c3ccccc3)CC2)cc1` (stereo not drawn) [Terfenadine]: the neuronal differentiation score in assay [1] (library: LOPAC) and in assay [1] (library: Prestwick) was inactive: 0 each time. Further, the “dopaminergic neuron differentiation score” value in assay [2] (library: LOPAC) and in assay [2] (library: Prestwick) was inactive: 0 throughout.

In the case of `C[C@]12C[C@H](O)[C@H]3[C@@H](CCC4=CC(=O)CC[C@@]43C)[C@@H]1CC[C@@H]2C(=O)CO` [Corticosterone], the neuronal differentiation score in assay [1] (library: LOPAC) and in assay [1] (library: Prestwick) was inactive: 0 throughout. For the same molecule, the “dopaminergic neuron differentiation score” value in assay [2] (library: LOPAC) is active: 3; in assay [2] (library: Prestwick), inactive: 0.

Consider `C#CCN(C)Cc1ccccc1` [Pargyline hydrochloride], for which the neuronal differentiation score in assay [1] (library: LOPAC) and in assay [1] (library: Prestwick) was inactive: 0 throughout. The “dopaminergic neuron differentiation score” value in assay [2] (library: LOPAC) and in assay [2] (library: Prestwick) was inactive: 0 in each case.

Regarding `CNCCCC1c2ccccc2C=Cc2ccccc21` [Protriptyline hydrochloride], the neuronal differentiation score in assay [1] (library: LOPAC) is inactive: 1; in assay [1] (library: Prestwick), inactive: 0. In addition, the “dopaminergic neuron differentiation score” value in assay [2] (library: LOPAC) and in assay [2] (library: Prestwick) was inactive: 0 throughout.

With `CCn1ccnc1CC1COc2ccccc2O1` (stereo not drawn) [Imiloxan hydrochloride], the neuronal differentiation score is inactive: 1 in assay [1] (library: LOPAC) and inactive: 0 in assay [1] (library: Tocriscreen). For the same molecule, the “dopaminergic neuron differentiation score” value in assay [2] (library: LOPAC) and in assay [2] (library: Tocriscreen) was inactive: 0 each time.

As for `COc1ccc(-c2ccc(=N)n(CCCC(=O)O)n2)cc1`, the neuronal differentiation score in assay [1] (library: LOPAC) and in assay [1] (library: Tocriscreen) was inactive: 0 each time. The “dopaminergic neuron differentiation score” value in assay [2] (library: LOPAC) and in assay [2] (library: Tocriscreen) was inactive: 0 throughout.

`O=[N+]([O-])c1ccccc1S(=O)(=O)NCC1CCC(CNCC2CCc3ccccc3C2)CC1` (stereo not drawn) [NTNCB hydrochloride]: the neuronal differentiation score in assay [1] (library: Tocriscreen) was inactive: 0. For the same molecule, in assay [2] (library: Tocriscreen), the “dopaminergic neuron differentiation score” value is inactive: 0.

Consider `OC(CN1CCN(c2cccc(Cl)c2)CC1)C(c1ccccc1)c1ccccc1` (stereo not drawn), for which the neuronal differentiation score in assay [1] (library: LOPAC) and in assay [1] (library: Tocriscreen) was inactive: 0 each time. The “dopaminergic neuron differentiation score” value in assay [2] (library: LOPAC) and in assay [2] (library: Tocriscreen) was inactive: 0 in each case.

Take `N=C(N)NCCCCNC(=N)N` [Arcaine sulfate]: the neuronal differentiation score in assay [1] (library: LOPAC) and in assay [1] (library: Phytochemical) was inactive: 0 each time. Further, the “dopaminergic neuron differentiation score” value in assay [2] (library: LOPAC) and in assay [2] (library: Phytochemical) was inactive: 0 in each case.

As to `c1ccc(C2CN3CCSC3=N2)cc1` (stereo not drawn) [Tetramisole hydrochloride], the neuronal differentiation score in assay [1] (library: LOPAC) and in assay [1] (library: Prestwick) was inactive: 0 in each case. In addition, the “dopaminergic neuron differentiation score” value in assay [2] (library: LOPAC) and in assay [2] (library: Prestwick) was inactive: 0 in each case.

`COc1cc(C)c2c(c1C=O)Oc1c(c(C)c(O)c3c1C(O)OC3=O)OC2=O` (stereo not drawn) [stictic acid]: the neuronal differentiation score in assay [1] (library: Natural) is inactive: 0. Besides, the “dopaminergic neuron differentiation score” value in assay [2] (library: Natural) was inactive: 0.

Regarding `COC(=O)/C(=C1/OC(=O)C(c2ccccc2)=C1O)c1ccccc1` [Vulpinic acid], the neuronal differentiation score in assay [1] (library: Phytochemical) is inactive: 0. The “dopaminergic neuron differentiation score” value in assay [2] (library: Phytochemical) was inactive: 0.

For `CN1c2ccccc2C(=O)N2CCc3c([nH]c4ccccc34)C21` (stereo in doubt) [Evodiamine], in assay [1] (library: Phytochemical), the neuronal differentiation score was inactive: 0. For the same molecule, in assay [2] (library: Phytochemical), the “dopaminergic neuron differentiation score” value was inactive: 0.

Regarding `CCNC(=O)CC[C@H](N)C(=O)O`, the neuronal differentiation score in assay [1] (library: Spectrum) is inactive: 0. Besides, the “dopaminergic neuron differentiation score” value in assay [2] (library: Spectrum) is inactive: 0.

For `CC[C@H]1OC(=O)C[C@@H](O)[C@H](C)[C@@H](O[C@@H]2O[C@H](C)[C@@H](O[C@H]3C[C@@](C)(O)[C@@H](O)[C@H](C)O3)[C@H](N(C)C)[C@H]2O)[C@@H](CC=O)C[C@@H](C)C(=O)/C=C/C(C)=C/[C@@H]1CO[C@@H]1O[C@H](C)[C@@H](O)[C@@H](OC)[C@H]1OC` [Tylosin], in assay [1] (library: Prestwick), the neuronal differentiation score is inactive: 0. Further, the “dopaminergic neuron differentiation score” value in assay [2] (library: Prestwick) was inactive: 0.

With `O=c1cc(-c2ccccc2)[nH]c2nc(Cl)ccc12` [7-Chloro-4-hydroxy-2-phenyl-1,8-naphthyridine], the neuronal differentiation score in assay [1] (library: LOPAC) was inactive: 0. Moreover, the “dopaminergic neuron differentiation score” value in assay [2] (library: LOPAC) was inactive: 0.

Regarding `NC[C@@H]1O[C@@H](O[C@H]2[C@H](O)[C@@H](O[C@H]3O[C@H](CO)[C@@H](O)[C@H](N)[C@H]3O)[C@H](N)C[C@@H]2N)[C@@H](O)[C@H](O)[C@H]1O`, the neuronal differentiation score in assay [1] (library: Spectrum) was inactive: 0. Further, the “dopaminergic neuron differentiation score” value in assay [2] (library: Spectrum) was inactive: 0.

As to `OC(CCN1CCCCC1)(c1ccccc1)C1CCCCC1` (stereo not drawn) [Trihexyphenidyl hydrochloride], in assay [1] (library: LOPAC), the neuronal differentiation score was inactive: 0. Besides, the “dopaminergic neuron differentiation score” value in assay [2] (library: LOPAC) is inactive: 0.

As for `CCCCC(CC)COC(=O)CC(C(=O)OCC(CC)CCCC)S(=O)(=O)O` (stereo not drawn), the neuronal differentiation score in assay [1] (library: Spectrum) was inactive: 0. Further, the “dopaminergic neuron differentiation score” value in assay [2] (library: Spectrum) is inactive: 0.
